Data as given in PubChem BioAssay AID504764 (Drosophila RNAi Screening Center, 2011).
The screen tested about 22,000 reagents; shown is an unselected part of those that have a named target and a result. Over the whole deposit, 403 (1.9%) were called active. 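Unnormalised raw counts per well; ratio z-scores behind the hit calls and whether each hit raises or lowers signal are not deposited.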 Not given: the amount of reagent.

- Purpose: 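Genome-wide screen for regulators of Notch-driven gene expression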 (primary screen)
- System: Drosophila Kc167 cells
- Reagent: long dsRNA against Drosophila genes
- Time to read-out: about 5 days (4 days dsRNA, then 24 h after transfection)
- Conditions: transfection of constitutively active membrane-tethered Notch lacking the extracellular domain, read 24 h later
- Measurement: 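Light from a Notch-responsive E(spl)m3 luciferase reporter under active Notch, with control-promoter and no-Notch reporter wells to normalise; raw counts from paired wells a and b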
- Reading the numbers: induced reporter light, run 1, well a and induced reporter light, run 1, well b: higher = more light from the Notch target reporter with active Notch; control promoter light, run 1, well a and control promoter light, run 1, well b: higher = more light from the viral control promoter (cell number, transfection, viability); uninduced reporter light, run 1, well a: higher = more light from the Notch target reporter without active Notch
- Rule for the call: 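Wells with low control signal or poorly matching duplicates excluded; duplicates averaged; per source plate, z beyond ±2 for induced/control log2 ratio or beyond ±1.8 for induced/uninduced marks a hit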
- Calls: active = modifier hit (raised or lowered Notch signal); inactive = not a hit

| target gene | dsRNA | induced reporter light, run 1, well a | induced reporter light, run 1, well b | control promoter light, run 1, well a | control promoter light, run 1, well b | uninduced reporter light, run 1, well a | Call |
| --- | --- | --- | --- | --- | --- | --- | --- |
| Unc-76 | DRSC18193 | 1.03e5 | 1.10e5 | 1.39e5 | 1.91e5 | 7600 | inactive |
| Unc-76 | DRSC18560 | 1.09e5 | 97070 | 1.11e5 | 1.45e5 | 7055 | inactive |
| Dh44 | DRSC12747 | 1.48e5 | 1.19e5 | 1.94e5 | 2.26e5 | 10745 | inactive |
| Dh44 | DRSC16409 | 94175 | 85920 | 73665 | 54515 | 4730 | inactive |
| alphaTry | DRSC07577 | 1.08e5 | 87310 | 1.01e5 | 1.06e5 | 8115 | inactive |
| Ac3 | DRSC03692 | 2.23e5 | 1.96e5 | 1.74e5 | 1.79e5 | 15470 | inactive |
| Sr-CI | DRSC00790 | 1.65e5 | 1.90e5 | 3.11e5 | 2.99e5 | 15595 | inactive |
| dgrn | DRSC12154 | 1.50e5 | 1.42e5 | 1.61e5 | 1.62e5 | 12300 | inactive |
| CG17564 | DRSC02626 | 34995 | 29175 | 34515 | 31580 | 3585 | inactive |
| CG32603 | DRSC19409 | 1.14e5 | 1.04e5 | 1.23e5 | 97880 | 15275 | inactive |
| CG32603 | DRSC21586 | – | – | – | – | – | inactive |
| Arpc2 | DRSC02113 | 2.55e5 | 2.65e5 | 2.22e5 | 2.26e5 | 16825 | inactive |
| Manf | DRSC14091 | 2.39e5 | 2.94e5 | 3.40e5 | 3.28e5 | 19385 | inactive |
| Sptr | DRSC18719 | 2.69e5 | 2.32e5 | 3.90e5 | 3.10e5 | 18375 | inactive |
| CG11815 | DRSC08209 | 1.16e5 | 1.74e5 | 2.58e5 | 2.45e5 | 5120 | inactive |
| Sar1 | DRSC17049 | 2.16e5 | 1.58e5 | 2.01e5 | 1.88e5 | 16635 | inactive |
| Trf4-1 | DRSC17775 | 1.49e5 | 1.45e5 | 2.56e5 | 2.63e5 | 11405 | inactive |
| ng1 | DRSC18802 | 1.06e5 | 92465 | 1.67e5 | 1.74e5 | 7130 | inactive |
| Zip102B | DRSC17155 | 1.03e5 | 1.08e5 | 1.89e5 | 1.90e5 | 7465 | inactive |
| scrib | DRSC13774 | 1.64e5 | 1.46e5 | 1.51e5 | 1.62e5 | 13805 | inactive |
| scrib | DRSC15809 | 1.67e5 | 1.69e5 | 2.03e5 | 2.09e5 | 11125 | inactive |
| scrib | DRSC17051 | 1.59e5 | 95665 | 2.01e5 | 1.75e5 | 12080 | inactive |
| CAH16 | DRSC15371 | 1.21e5 | 1.05e5 | 1.87e5 | 1.78e5 | 10140 | inactive |
| nop5 | DRSC03582 | 31680 | 31100 | 41945 | 37630 | 1882 | inactive |
| P58IPK | DRSC16404 | 51315 | 73325 | 58920 | 59225 | 3110 | inactive |
| Tsp42Er | DRSC06183 | 2.12e5 | 2.35e5 | 2.78e5 | 2.66e5 | 18955 | inactive |
| CG32767 | DRSC18386 | 1.58e5 | 1.39e5 | 2.75e5 | 3.50e5 | 11450 | inactive |
| CG5348 | DRSC06933 | 1.33e5 | 96060 | 1.02e5 | 88520 | 8200 | inactive |

Next part, starting with the last 7 of the part before.
| target gene | dsRNA | induced reporter light, run 1, well a | induced reporter light, run 1, well b | control promoter light, run 1, well a | control promoter light, run 1, well b | uninduced reporter light, run 1, well a | Call |
| --- | --- | --- | --- | --- | --- | --- | --- |
| scrib | DRSC17051 | 1.59e5 | 95665 | 2.01e5 | 1.75e5 | 12080 | inactive |
| CAH16 | DRSC15371 | 1.21e5 | 1.05e5 | 1.87e5 | 1.78e5 | 10140 | inactive |
| nop5 | DRSC03582 | 31680 | 31100 | 41945 | 37630 | 1882 | inactive |
| P58IPK | DRSC16404 | 51315 | 73325 | 58920 | 59225 | 3110 | inactive |
| Tsp42Er | DRSC06183 | 2.12e5 | 2.35e5 | 2.78e5 | 2.66e5 | 18955 | inactive |
| CG32767 | DRSC18386 | 1.58e5 | 1.39e5 | 2.75e5 | 3.50e5 | 11450 | inactive |
| CG5348 | DRSC06933 | 1.33e5 | 96060 | 1.02e5 | 88520 | 8200 | inactive |
| CG7227 | DRSC03032 | 1.92e5 | 1.39e5 | 1.55e5 | 1.38e5 | 13735 | inactive |
| CG12288 | DRSC02155 | 1.27e5 | 1.42e5 | 1.43e5 | 1.57e5 | 10778 | inactive |
| CG13705 | DRSC08314 | 1.23e5 | 1.39e5 | 1.38e5 | 1.08e5 | 10020 | inactive |
| CG5916 | DRSC15917 | 2.04e5 | 1.98e5 | 2.76e5 | 2.72e5 | 18170 | inactive |
| sro | DRSC14469 | 85055 | 80260 | 1.41e5 | 1.36e5 | 8410 | inactive |
| Cyp40 | DRSC10980 | 89645 | 81135 | 66465 | 23035 | 8725 | inactive |
| Osi17 | DRSC12284 | 81305 | 64500 | 52465 | 49980 | 5045 | inactive |
| Glyp | DRSC00752 | 2.01e5 | 1.93e5 | 2.72e5 | 2.92e5 | 11955 | inactive |
| Ank2 | DRSC08894 | 1.36e5 | 1.36e5 | 1.76e5 | 1.73e5 | 11005 | inactive |
| Ank2 | DRSC09666 | 2.30e5 | 2.10e5 | 1.93e5 | 1.90e5 | 10480 | inactive |
| Ank2 | DRSC10338 | 2.23e5 | 2.33e5 | 3.63e5 | 2.32e5 | 10120 | inactive |
| Ank2 | DRSC11278 | 2.85e5 | 2.31e5 | 2.28e5 | 2.38e5 | 9950 | inactive |
| CG13198 | DRSC06323 | 1.01e5 | 1.11e5 | 1.70e5 | 1.34e5 | 10985 | inactive |
| CG10761 | DRSC17753 | 1.42e5 | 1.63e5 | 2.68e5 | 2.39e5 | 10810 | inactive |
| Aprt | DRSC08139 | 93645 | 96085 | 1.11e5 | 1.46e5 | 6365 | inactive |
| Sirt1 | DRSC03435 | 1.81e5 | 2.35e5 | 2.31e5 | 2.30e5 | 13590 | inactive |
| Fibp | DRSC11031 | 1.02e5 | 1.31e5 | 66610 | 90480 | 9035 | inactive |
| HipHop | DRSC10734 | 95115 | 1.31e5 | 76970 | 81070 | 7615 | inactive |
| CG1494 | DRSC20509 | 95210 | 88845 | 1.14e5 | 1.05e5 | 10605 | inactive |
| CG31643 | DRSC00906 | 1.41e5 | 1.17e5 | 1.94e5 | 1.50e5 | 11685 | inactive |
| CG8708 | DRSC07240 | 1.80e5 | 1.36e5 | 1.82e5 | 1.49e5 | 12050 | inactive |
| mask | DRSC15370 | 85335 | 80475 | 97210 | 97810 | 8482 | inactive |
| mask | DRSC16005 | 52675 | 53300 | 79800 | 98360 | 5920 | inactive |
| mask | DRSC16018 | 38900 | 51570 | 58005 | 65975 | 5255 | inactive |
